PubChem BioAssay AID662 (National Center for Advancing Translational Sciences (NCATS), 2007)
This is one part of the list. The main result of the screen is listed elsewhere. These columns were measured beside it and carry no call. Most of these compounds were active or inconclusive in the main read-out, so they are no random draw. Words in brackets tell the shape of the fitted curve; partial curves, single points and poor fits give uncertain potencies.

Assay: Cell signaling CRE-BLA (Fsk stim)
Conditions: CHO CRE-bla reporter (cAMP response element driving beta-lactamase), forskolin EC10, beta-lactamase ratio; measured here: 460 nm blue channel
Summary of the method: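 Modulation of forskolin-driven signalling is measured in CHO cells carrying a CRE-controlled beta-lactamase reporter. Cells are stimulated with EC10 NKH 477 in the presence of titrated compound for 3 h at 37 °C, then loaded with CCF4 for 2 h at room temperature.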

Row | SMILES | AC50
1 | COc1ccccc1-n1cc(C(=O)NCC(=O)N2CCN(c3ccccn3)CC2)c2ccccc2c1=O | 0.00316 µM [falling, full curve, poor fit]
2 | COC(=O)C(NC=O)C(O)(Cc1ccccc1)C(F)(F)F (stereo not drawn) | 0.1 µM [falling, partial curve]
3 | COc1ccc(-c2csc(N(CC3CCCO3)C(=O)c3ccco3)n2)cc1 (stereo not drawn) | 2.51 µM [falling, single point]
4 | Cc1ccc(-n2c(C)nc3c(cnn3-c3ccc(F)cc3)c2=O)cc1 | 10 µM [falling, single point]
5 | CCOC(=O)c1cnc2c(Cl)c(Cl)ccc2c1N1CCN(C)CC1 | 10 µM [rising, single point]
6 | O=C(CCN1C(=O)C2CC=CCC2C1=O)N1CCN(c2ccccn2)CC1 (stereo not drawn) | 25.1 µM [rising, single point]
7 | C[C@@H](CN1CCC(Cc2ccccc2)CC1)[C@@H](O)c1ccc(O)cc1 | 15.8 µM [falling, partial curve, poor fit]
8 | Cc1ccc2nc3c(cc(C#N)c(=O)n3CCN3CCOCC3)c(=O)n2c1 | 10 µM [rising, partial curve]
9 | COc1ccc(OC)c(N2C(=O)C(Cl)=C(N3CCOCC3)C2=O)c1 | 0.00316 µM [falling, full curve, poor fit]
10 | Fc1ccccc1N1CCN(c2nc3ccccc3n3nnnc23)CC1 | 1 µM [rising, full curve, poor fit]
11 | COc1ccc(N2CC(C(=O)NCCCN3CCOCC3)CC2=O)cc1 (stereo not drawn) | 0.398 µM [rising, partial curve]
12 | C=CCOc1ccc2ccccc2c1CNc1ncn[nH]1 | 2 µM [falling, full curve, poor fit]
13 | CCOc1ccc(C2C=C(c3ccccc3)Nc3nnnn32)cc1 (stereo not drawn) | 25.1 µM [rising, single point]
14 | COc1cc(C(=O)NC2CC3CCCC(C2)N3CC(=O)Nc2ccccc2)cc(OC)c1OC (stereo not drawn) | 3.98 µM [rising, partial curve]
15 | CCNc1ncc2nc(-c3cc(F)cc(F)c3)c(=O)n(-c3ccccc3)c2n1 | 2.51 µM [rising, full curve]
16 | Clc1cccc2sc(N3CCCCC3)nc12 | 31.6 µM [falling, single point]
17 | CCOC(=O)c1cccc(NC(=O)CN(c2ccc(C)cc2)S(=O)(=O)c2c(C)n[nH]c2C)c1 | 12.6 µM [rising, single point]
18 | Cc1ccc(-c2nn3c(C)nnc3s2)cc1NC(=O)c1ccc(OC(C)C)cc1 | 7.94 µM [rising, partial curve]

Rewritten comma-delimited: entries from further up
Row,SMILES,AC50
4,Cc1ccc(-n2c(C)nc3c(cnn3-c3ccc(F)cc3)c2=O)cc1,"10 µM [falling, single point]"
5,CCOC(=O)c1cnc2c(Cl)c(Cl)ccc2c1N1CCN(C)CC1,"10 µM [rising, single point]"
6,O=C(CCN1C(=O)C2CC=CCC2C1=O)N1CCN(c2ccccn2)CC1 (stereo not drawn),"25.1 µM [rising, single point]"
7,C[C@@H](CN1CCC(Cc2ccccc2)CC1)[C@@H](O)c1ccc(O)cc1,"15.8 µM [falling, partial curve, poor fit]"
8,Cc1ccc2nc3c(cc(C#N)c(=O)n3CCN3CCOCC3)c(=O)n2c1,"10 µM [rising, partial curve]"
